From PubChem BioAssay AID280 (DTP/NCI, 2004)
The list shows only some results of the screen, not a fair sample: it gathers tests that were run many times, whatever their T/C, doses with no T/C, and many T/C values between a quarter and a half above the control. Further doses and runs are listed elsewhere. T/C gives the treated animals as a percentage of the vehicle group. Some doses have a count of surviving animals in place of a T/C: the source files T/C as zero there, which appears to mark a toxic dose or a test without result, not a measured value. Some survivor counts are full or nearly so, which does not show that the dose was tolerated: survival well below the control is almost never listed, so the zero probably covers shortened survival too. Counts of survivors are from the toxicity check (mostly the fifth day) where no day follows; animals may have died later. Schedules are NCI's codes, read here as Q, the interval in days (D) or hours (H), X, the number of doses. Some entries were tested several times; the values are given in rising order. For survival time, the PubChem record calls one and a half times the control and up active, and a quarter to a half above the control has no call in these data; cut-offs in other NCI protocols can differ. Counts like (3×) give the number of equal values in this list. Some T/C values are followed by the survivors on the day toxicity was checked, most often the fifth; without a count, all were alive then.

Test system: nude mice, LOX melanoma ip, survival T/C
Test: NCI In Vivo Anticancer Drug Screen. Data for tumor model Human Amelanotic Melanoma (LOX) (intraperitoneal) in NU/NU BALB/C (nude) mice
Settings: T/C endpoint: median survival time, schedule: Q04DX003 (ip), higher T/C = longer survival
Method: The antitumor activity of compounds was measured in mice bearing transplantable tumors. Survival or tumor size were measured and the results are expressed as the measurement made in the treated group (T) divided by the measurement made in the vehicle treated control group (C). The tumor model used in this assay is Human Amelanotic Melanoma (LOX) (intraperitoneal) in NU/NU BALB/C (nude) mice

[1] = dose: 75.0 mg/kg/injection, vehicle: Klucel (hydroxypropylcellulose) (HPC)
[2] = dose: 150.0 mg/kg/injection, vehicle: Klucel (hydroxypropylcellulose) (HPC)
[3] = dose: 300.0 mg/kg/injection, vehicle: Klucel (hydroxypropylcellulose) (HPC)
[4] = dose: 600.0 mg/kg/injection, vehicle: Klucel (hydroxypropylcellulose) (HPC)
[5] = dose: 1200.0 mg/kg/injection, vehicle: Klucel (hydroxypropylcellulose) (HPC)
[6] = dose: 100.0 mg/kg/injection, vehicle: Klucel (hydroxypropylcellulose) (HPC)
[7] = dose: 200.0 mg/kg/injection, vehicle: Klucel (hydroxypropylcellulose) (HPC)
[8] = dose: 400.0 mg/kg/injection, vehicle: Klucel (hydroxypropylcellulose) (HPC)
[9] = dose: 75.0 mg/kg/injection, vehicle: saline with Tween-80
[10] = dose: 600.0 mg/kg/injection, vehicle: saline with Tween-80
[11] = dose: 1200.0 mg/kg/injection, vehicle: saline with Tween-80
[12] = dose: 100.0 mg/kg/injection, vehicle: saline with Tween-80
[13] = dose: 200.0 mg/kg/injection, vehicle: saline with Tween-80

O=C(O)c1cc(C(=O)O)c(C(=O)O)cc1C(=O)O.[NH2-].[NH2-].[NH2-].[NH2-].[Pt+2].[Pt+2]
survivor count (dose: 100.0 mg/kg/injection, vehicle: water): 1 of 6 on day 10

CCOC(=O)C1=C(Nc2ccc(OC)cc2)C(N)=NC1=N
T/C (dose: 200.0 mg/kg/injection, vehicle: suspension in saline): 126 % of control | T/C (dose: 400.0 mg/kg/injection, vehicle: suspension in saline): 134 % of control | survivor count (dose: 800.0 mg/kg/injection, vehicle: suspension in saline): 0 of 6 on day 10

CC/C(=C(\c1ccccc1)c1ccc(OCCN(C)C)cc1)c1ccccc1
survivor count (dose: 1200.0 mg/kg/injection, vehicle: suspension in saline): 0 of 6 on day 10

O=CC(O)C(O)C(O)C(O)CO (stereo not given)
survivor count (dose: 600.0 mg/kg/injection, vehicle: saline): 6 of 6 on day 10

CCOC1NC(=O)Oc2ccccc21 (stereo not given)
T/C [1]: 132 % of control [5 of 6 alive on day 10] | T/C [2]: 127 % of control | T/C [3]: 132 % of control [5 of 6 alive on day 10] | T/C [4]: 125 % of control [5 of 6 alive on day 10] | survivor count [5]: 0 of 6 on day 10

CCOC(=O)Nc1cc(NC(C)/C(=N/O)c2ccccc2)c([N+](=O)[O-])c(N)n1 (stereo not given)
survivor count [6]: 3 of 6 on day 10 | survivor count [7]: 3 of 6 on day 10 | survivor count [8]: 1 of 6 on day 10 and 3 of 6 on day 10 | survivor count (dose: 800.0 mg/kg/injection, vehicle: Klucel (hydroxypropylcellulose) (HPC)): 2 of 6 on day 10

CC(=O)NC(CCc1ccc(Cl)c(Cl)c1)c1cccc(O)c(=O)c1 (stereo not given)
T/C (dose: 240.0 mg/kg/injection, vehicle: Klucel (hydroxypropylcellulose) (HPC)): 130 % of control | T/C [8]: 136 % of control [5 of 6 alive on day 10] | survivor count [8]: 3 of 6 on day 10 | survivor count (dose: 666.67 mg/kg/injection, vehicle: Klucel (hydroxypropylcellulose) (HPC)): 0 of 6 on day 10 | survivor count (dose: 1111.11 mg/kg/injection, vehicle: Klucel (hydroxypropylcellulose) (HPC)): 0 of 6 on day 10

NC(=S=O)C(N)=S=O
survivor count (dose: 1000.0 mg/kg/injection, vehicle: saline with Tween-80): 0 of 6 on day 10

O=C(NNC(=O)c1cccc(C(=O)NNC(=O)c2ccc(Cl)c(Cl)c2)n1)c1ccc(Cl)c(Cl)c1
T/C [9]: 125 % of control (2×) | T/C (dose: 150.0 mg/kg/injection, vehicle: saline with Tween-80): 131 and 136 % of control | T/C (dose: 300.0 mg/kg/injection, vehicle: saline with Tween-80): 133 and 140 % of control | T/C [10]: 126 [4 of 6 alive on day 10] and 145 % of control [5 of 6 alive on day 10] | survivor count [11]: 0 of 6 on day 10

NC(=S)c1ncn(C2OC(COC=O)C(OC=O)C2OC=O)c1NC=O (stereo not given)
T/C [12]: 128 % of control | survivor count (dose: 800.0 mg/kg/injection, vehicle: saline with Tween-80): 5 of 6 on day 10

CN=C(NC#N)NCCSCc1nc[nH]c1C
survivor count [4]: 0 of 6 on day 10 | survivor count [5]: 0 of 6 on day 10

COc1cccc2c1C(CO)N1C(C#N)C3CC(C(=O)O)C(C1C2)N3C (stereo not given)
T/C (dose: 1.56 mg/kg/injection, vehicle: saline): 146 % of control | T/C (dose: 3.12 mg/kg/injection, vehicle: saline): 146 % of control | T/C (dose: 3.12 mg/kg/injection, vehicle: suspension in saline): 137 % of control | T/C (dose: 6.25 mg/kg/injection, vehicle: saline): 147 % of control | T/C (dose: 6.25 mg/kg/injection, vehicle: suspension in saline): 148 % of control | survivor count (dose: 25.0 mg/kg/injection, vehicle: suspension in saline): 6 of 6 on day 10 | survivor count (dose: 50.0 mg/kg/injection, vehicle: suspension in saline): 3 of 6 on day 10

COC1=C(C)C(=O)C2=C(C1=O)C(CO)N1C(C#N)C3CC4C(C1C2N1CCOC41)N3C (stereo not given)
T/C (dose: 1.25 mg/kg/injection, vehicle: saline + alcohol): 133 % of control | survivor count (dose: 5.0 mg/kg/injection, vehicle: acid diluted with saline): 2 of 6 on day 10 | survivor count (dose: 5.0 mg/kg/injection, vehicle: saline + alcohol): 0 of 6 on day 10 | survivor count (dose: 10.0 mg/kg/injection, vehicle: acid diluted with saline): 0 of 6 on day 10 | survivor count (dose: 10.0 mg/kg/injection, vehicle: saline + alcohol): 0 of 6 on day 10

CCOc1ccc(C(C)c2cc3c(cc2OC)OCO3)cc1 (stereo not given)
T/C (dose: 75.0 mg/kg/injection, vehicle: distilled water + Tween-80): 127 and 130 % of control | T/C (dose: 150.0 mg/kg/injection, vehicle: distilled water + Tween-80): 131 % of control | survivor count (dose: 1200.0 mg/kg/injection, vehicle: distilled water + Tween-80): 0 of 6 on day 10 and 1 of 6 on day 10

Cc1ccc(C2=CSC3=NCCN23)cc1Cl
survivor count [6]: 0 of 6 on day 10 | survivor count [7]: 0 of 6 on day 10

CC(=O)N(C)c1ccc(Nc2cc(C)[nH]c3ccc4ncnc4c23)cc1
survivor count (dose: 25.0 mg/kg/injection, vehicle: saline with Tween-80): 5 of 5 on day 10 | survivor count [13]: 0 of 6 on day 10 | survivor count (dose: 278.0 mg/kg/injection, vehicle: saline): 1 of 6 on day 10

CN(C)[C@@H]1C(=O)C(C(=O)NCN2CCN(C(=N)N=C(N)N)CC2)=C(O)[C@@]2(O)C(=O)C3=C(O)c4c(O)cccc4[C@@](C)(O)[C@H]3C[C@@H]12
T/C (dose: 0.63 mg/kg/injection, vehicle: suspension in saline): 135 % of control

CCN(CC)c1ccc2[nH]c3c(C(N)=O)cc(=O)c(=O)c=3oc2c1
T/C [9]: 125 % of control | survivor count [10]: 0 of 6 on day 10 | survivor count [11]: 0 of 6 on day 10

CC(=O)C[n+]1ccc(C)cc1Sc1ccccc1C
survivor count [13]: 3 of 6 on day 10

COc1cccc(Sc2ccc([N+](=O)[O-])c3no[n+]([O-])c23)c1
survivor count [10]: 3 of 6 on day 10

Cc1cc(N/N=C/c2ccccn2)nc2ccccc12
survivor count [3]: 4 of 6 on day 10 | survivor count [4]: 2 of 6 on day 10 | survivor count [5]: 2 of 6 on day 10

CCOC(=O)Nc1cc2c(c(N)n1)N=C(c1ccccc1)CN2
survivor count (dose: 15.0 mg/kg/injection, vehicle: saline with Tween-80): 1 of 6 on day 10

C/C(=N\NC(=S)N1CC2CCC(CC2)C1)c1nccs1
survivor count (dose: 6.25 mg/kg/injection, vehicle: saline with Tween-80): 6 of 6 on day 10

Nc1nc2c(C(=O)N3CCCC3)nnn2c2ccccc12
survivor count [12]: 4 of 6 on day 10 | survivor count [13]: 0 of 6 on day 10

N=C(N)c1ccc(N=Nc2c(O)ccc3cc(O)ccc23)cc1
survivor count [1]: 5 of 6 on day 10 | survivor count [2]: 6 of 6 on day 10
